Experimental data reported in the supplement of paper PMC12823440, “Inhibitors supercharge kinase turnover through native proteolytic circuits” (Nature, 2025).
Where a name gives a salt, the structure may show the parent alone. Some of the results follow. The calls rarely recur for the same compound in another form.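 In K562 cells expressing nanoluciferase-fused kinases, luminescence was recorded at 4 h intervals between 2 and 18 h, normalized as percent of control with DMSO at 100% and a positive control at 0%. A significant (2 sigma) signal drop marks a time point as decreased. The authors' rule for a hit is not shown and takes in more than the number of time points.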

The chains behind the UniProt entries cited, without tags or fusion partners. Where a name states a change or a piece, a line headed by the entry shows the natural chain unless it says otherwise.
UniProt Q06187: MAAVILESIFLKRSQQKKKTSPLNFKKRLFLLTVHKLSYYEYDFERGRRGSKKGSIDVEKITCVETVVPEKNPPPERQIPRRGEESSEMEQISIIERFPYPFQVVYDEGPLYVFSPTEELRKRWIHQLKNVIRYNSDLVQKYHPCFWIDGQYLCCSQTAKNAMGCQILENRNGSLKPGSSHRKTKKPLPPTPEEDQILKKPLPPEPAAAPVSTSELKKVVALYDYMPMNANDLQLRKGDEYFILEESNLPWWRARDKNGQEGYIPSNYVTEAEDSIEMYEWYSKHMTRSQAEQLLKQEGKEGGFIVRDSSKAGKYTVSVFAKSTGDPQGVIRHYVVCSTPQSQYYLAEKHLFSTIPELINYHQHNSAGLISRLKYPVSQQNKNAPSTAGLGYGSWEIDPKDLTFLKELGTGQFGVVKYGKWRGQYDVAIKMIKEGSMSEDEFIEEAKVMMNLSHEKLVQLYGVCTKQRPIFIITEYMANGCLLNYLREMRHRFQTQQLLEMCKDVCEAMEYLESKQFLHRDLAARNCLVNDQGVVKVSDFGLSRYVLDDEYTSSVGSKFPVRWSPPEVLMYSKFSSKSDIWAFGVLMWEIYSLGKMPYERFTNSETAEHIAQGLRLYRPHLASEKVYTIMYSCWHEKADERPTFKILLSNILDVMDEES
UniProt Q9UQM7, whole entry: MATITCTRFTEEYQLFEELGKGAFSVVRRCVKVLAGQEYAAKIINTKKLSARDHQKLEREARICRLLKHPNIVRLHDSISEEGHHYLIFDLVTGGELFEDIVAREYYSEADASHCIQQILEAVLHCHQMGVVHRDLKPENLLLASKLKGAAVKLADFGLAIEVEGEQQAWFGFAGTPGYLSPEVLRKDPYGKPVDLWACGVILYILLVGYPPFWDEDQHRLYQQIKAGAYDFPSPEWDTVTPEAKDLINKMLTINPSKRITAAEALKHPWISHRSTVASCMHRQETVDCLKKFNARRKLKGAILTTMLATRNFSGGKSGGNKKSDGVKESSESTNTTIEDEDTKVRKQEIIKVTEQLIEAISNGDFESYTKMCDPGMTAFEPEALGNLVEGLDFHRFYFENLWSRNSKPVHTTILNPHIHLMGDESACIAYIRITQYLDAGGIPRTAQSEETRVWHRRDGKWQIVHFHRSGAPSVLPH
UniProt Q15131: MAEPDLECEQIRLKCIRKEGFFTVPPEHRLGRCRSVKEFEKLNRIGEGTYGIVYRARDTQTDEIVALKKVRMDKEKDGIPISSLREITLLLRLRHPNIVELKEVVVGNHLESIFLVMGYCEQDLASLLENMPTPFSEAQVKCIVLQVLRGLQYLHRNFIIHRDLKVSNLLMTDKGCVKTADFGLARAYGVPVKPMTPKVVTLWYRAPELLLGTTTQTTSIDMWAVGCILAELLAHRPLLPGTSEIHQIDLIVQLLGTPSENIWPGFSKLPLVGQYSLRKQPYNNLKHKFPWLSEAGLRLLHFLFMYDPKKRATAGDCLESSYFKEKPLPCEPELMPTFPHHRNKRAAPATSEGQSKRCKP
UniProt Q00526: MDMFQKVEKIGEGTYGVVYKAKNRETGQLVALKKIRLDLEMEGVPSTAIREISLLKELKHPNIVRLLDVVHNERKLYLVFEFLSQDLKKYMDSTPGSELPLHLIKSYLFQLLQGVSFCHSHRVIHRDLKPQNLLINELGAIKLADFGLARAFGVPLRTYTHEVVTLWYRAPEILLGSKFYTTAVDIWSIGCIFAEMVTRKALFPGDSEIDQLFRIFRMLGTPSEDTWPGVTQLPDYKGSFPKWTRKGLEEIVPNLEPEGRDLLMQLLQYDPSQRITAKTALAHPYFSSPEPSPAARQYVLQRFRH
UniProt P11802: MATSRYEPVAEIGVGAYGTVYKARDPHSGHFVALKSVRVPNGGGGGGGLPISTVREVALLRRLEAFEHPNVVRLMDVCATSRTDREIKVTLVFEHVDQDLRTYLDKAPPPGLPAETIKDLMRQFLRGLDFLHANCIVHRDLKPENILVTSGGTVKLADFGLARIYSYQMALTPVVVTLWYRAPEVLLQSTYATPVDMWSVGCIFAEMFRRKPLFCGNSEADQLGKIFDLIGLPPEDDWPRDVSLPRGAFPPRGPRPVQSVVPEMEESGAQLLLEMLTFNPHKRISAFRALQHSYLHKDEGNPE
UniProt P50613: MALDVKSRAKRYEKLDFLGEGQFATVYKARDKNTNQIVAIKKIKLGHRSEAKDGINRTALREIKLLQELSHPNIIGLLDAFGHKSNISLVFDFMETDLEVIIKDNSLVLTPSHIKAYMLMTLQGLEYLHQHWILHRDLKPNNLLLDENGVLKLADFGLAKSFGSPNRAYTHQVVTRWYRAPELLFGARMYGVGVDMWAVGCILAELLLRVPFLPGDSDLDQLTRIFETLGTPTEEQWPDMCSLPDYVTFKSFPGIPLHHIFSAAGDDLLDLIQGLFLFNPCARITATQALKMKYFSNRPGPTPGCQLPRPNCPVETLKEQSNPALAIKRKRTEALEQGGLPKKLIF
UniProt P50750, whole entry: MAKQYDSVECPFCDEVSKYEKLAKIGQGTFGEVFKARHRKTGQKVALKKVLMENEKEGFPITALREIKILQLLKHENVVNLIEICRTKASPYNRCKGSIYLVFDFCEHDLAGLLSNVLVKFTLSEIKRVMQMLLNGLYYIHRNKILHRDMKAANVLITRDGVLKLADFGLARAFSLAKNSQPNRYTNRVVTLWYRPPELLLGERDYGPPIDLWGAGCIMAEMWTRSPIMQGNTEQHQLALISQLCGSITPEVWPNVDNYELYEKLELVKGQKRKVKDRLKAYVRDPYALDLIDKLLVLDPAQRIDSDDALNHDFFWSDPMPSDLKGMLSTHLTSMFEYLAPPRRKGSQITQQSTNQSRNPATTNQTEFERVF
UniProt P07333, whole entry: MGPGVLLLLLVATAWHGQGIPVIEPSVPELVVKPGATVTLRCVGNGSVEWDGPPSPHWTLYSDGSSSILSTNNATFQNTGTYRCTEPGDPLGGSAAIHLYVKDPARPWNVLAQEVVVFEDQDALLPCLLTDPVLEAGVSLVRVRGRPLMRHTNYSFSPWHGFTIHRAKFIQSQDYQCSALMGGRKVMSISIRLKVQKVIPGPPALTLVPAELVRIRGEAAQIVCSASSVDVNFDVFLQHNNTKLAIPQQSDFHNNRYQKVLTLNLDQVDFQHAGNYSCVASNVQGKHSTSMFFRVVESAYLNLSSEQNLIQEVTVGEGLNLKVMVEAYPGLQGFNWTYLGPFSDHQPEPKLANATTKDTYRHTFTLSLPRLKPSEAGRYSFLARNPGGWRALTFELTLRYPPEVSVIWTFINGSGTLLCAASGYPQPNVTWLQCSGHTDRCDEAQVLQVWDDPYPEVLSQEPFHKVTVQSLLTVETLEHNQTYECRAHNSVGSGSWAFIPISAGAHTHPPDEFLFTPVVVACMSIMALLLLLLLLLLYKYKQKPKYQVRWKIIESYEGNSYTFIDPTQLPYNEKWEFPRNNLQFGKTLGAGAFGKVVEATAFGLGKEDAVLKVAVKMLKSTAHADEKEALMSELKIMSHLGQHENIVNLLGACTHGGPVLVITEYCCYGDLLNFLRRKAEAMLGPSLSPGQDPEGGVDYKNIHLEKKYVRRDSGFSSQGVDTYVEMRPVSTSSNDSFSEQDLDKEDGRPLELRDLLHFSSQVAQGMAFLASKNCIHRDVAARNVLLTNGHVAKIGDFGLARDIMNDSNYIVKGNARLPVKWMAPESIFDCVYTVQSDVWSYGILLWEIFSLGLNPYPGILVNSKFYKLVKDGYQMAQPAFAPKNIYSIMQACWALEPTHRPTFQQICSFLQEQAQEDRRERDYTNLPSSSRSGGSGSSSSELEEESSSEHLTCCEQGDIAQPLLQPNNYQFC
UniProt P41240: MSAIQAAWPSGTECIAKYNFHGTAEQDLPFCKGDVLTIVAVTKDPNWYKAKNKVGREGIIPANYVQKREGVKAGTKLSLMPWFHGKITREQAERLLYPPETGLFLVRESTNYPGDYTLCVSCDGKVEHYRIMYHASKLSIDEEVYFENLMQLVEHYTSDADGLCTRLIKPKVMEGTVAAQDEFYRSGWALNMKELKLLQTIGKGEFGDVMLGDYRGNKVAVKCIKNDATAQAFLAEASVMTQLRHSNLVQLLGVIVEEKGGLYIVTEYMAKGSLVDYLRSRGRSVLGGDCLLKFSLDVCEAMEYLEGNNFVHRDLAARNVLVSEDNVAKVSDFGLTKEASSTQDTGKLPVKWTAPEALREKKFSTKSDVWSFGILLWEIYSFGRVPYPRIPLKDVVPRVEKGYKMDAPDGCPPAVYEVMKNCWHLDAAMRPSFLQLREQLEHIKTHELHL
UniProt P48729: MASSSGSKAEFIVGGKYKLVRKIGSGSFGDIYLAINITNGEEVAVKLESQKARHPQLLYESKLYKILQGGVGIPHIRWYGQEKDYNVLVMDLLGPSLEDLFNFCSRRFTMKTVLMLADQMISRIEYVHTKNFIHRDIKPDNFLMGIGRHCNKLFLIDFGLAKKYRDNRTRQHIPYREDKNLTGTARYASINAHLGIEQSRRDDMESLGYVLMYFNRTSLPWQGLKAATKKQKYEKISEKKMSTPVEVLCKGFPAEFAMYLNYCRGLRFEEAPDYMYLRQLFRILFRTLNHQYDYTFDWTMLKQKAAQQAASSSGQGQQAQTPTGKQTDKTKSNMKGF
UniProt P48730: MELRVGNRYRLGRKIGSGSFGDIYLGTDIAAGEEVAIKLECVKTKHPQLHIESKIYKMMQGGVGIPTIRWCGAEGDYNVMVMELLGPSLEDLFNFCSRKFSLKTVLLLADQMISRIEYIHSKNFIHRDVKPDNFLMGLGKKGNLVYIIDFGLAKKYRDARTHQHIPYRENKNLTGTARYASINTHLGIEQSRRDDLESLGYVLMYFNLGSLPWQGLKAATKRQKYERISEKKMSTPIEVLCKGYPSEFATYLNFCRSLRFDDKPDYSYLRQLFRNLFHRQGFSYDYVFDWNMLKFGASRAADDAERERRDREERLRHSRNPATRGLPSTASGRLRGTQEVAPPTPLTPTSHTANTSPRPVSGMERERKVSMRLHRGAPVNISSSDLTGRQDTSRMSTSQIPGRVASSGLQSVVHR
UniProt Q08345: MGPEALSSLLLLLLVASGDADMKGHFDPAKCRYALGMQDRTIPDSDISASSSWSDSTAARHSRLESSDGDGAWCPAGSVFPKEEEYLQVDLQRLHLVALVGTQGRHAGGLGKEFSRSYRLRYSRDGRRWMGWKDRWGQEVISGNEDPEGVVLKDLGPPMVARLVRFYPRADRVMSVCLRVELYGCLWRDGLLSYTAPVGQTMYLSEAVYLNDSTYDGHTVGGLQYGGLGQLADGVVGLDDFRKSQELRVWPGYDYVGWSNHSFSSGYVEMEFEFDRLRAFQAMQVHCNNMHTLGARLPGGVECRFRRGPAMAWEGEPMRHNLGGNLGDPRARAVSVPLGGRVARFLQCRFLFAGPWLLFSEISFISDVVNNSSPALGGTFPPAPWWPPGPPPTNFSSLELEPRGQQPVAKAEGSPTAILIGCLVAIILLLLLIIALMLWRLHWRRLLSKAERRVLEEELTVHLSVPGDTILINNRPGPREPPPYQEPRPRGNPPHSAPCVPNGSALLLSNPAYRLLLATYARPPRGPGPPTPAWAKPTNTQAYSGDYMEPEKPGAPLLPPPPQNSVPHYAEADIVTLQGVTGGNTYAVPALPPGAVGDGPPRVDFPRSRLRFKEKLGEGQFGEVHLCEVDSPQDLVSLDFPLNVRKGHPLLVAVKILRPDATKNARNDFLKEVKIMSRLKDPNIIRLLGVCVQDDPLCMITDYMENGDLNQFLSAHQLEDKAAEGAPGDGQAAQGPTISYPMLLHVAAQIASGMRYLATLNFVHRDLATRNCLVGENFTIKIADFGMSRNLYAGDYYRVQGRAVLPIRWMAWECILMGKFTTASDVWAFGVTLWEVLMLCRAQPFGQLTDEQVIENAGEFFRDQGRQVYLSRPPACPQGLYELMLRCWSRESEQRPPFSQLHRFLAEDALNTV
UniProt Q9Y463, whole entry, looked up: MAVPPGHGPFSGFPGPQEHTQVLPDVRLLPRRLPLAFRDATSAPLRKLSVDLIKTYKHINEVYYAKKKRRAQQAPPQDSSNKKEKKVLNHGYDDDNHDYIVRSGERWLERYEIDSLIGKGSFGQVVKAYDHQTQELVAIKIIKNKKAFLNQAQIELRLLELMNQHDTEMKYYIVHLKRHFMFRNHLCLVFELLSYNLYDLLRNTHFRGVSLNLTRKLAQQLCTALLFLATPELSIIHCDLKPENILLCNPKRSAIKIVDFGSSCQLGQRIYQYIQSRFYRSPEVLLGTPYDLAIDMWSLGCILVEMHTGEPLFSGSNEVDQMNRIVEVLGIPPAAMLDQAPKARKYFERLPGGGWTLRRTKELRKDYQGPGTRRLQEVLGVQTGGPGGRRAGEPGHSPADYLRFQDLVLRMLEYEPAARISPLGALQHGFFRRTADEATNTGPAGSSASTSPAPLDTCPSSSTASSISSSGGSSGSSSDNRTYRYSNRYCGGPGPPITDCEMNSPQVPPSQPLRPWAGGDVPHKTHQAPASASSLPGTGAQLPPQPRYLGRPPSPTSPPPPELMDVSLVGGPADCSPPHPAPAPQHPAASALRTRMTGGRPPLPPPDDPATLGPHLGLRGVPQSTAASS

Columns and labels:
Assay in all cases: kinase-Nluc reporter destabilization hit call (1 = scored as downregulated) (binary); higher = compound decreases kinase abundance
Conditions in all cases: K562; 2-18 h
BRAF_V600E = tested on: BRAF_V600E
BTK = BTK (UniProt Q06187)
CAMK2A = CAMK2A (UniProt Q9UQM7)
CAMK2G = CAMK2G (UniProt Q13555)
CDK10 = CDK10 (UniProt Q15131)
CDK2 = CDK2 (UniProt P24941)
CDK3 = CDK3 (UniProt Q00526)
CDK4 = CDK4 (UniProt P11802)
CDK5 = CDK5 (UniProt Q00535)
CDK6 = CDK6 (UniProt Q00534)
CDK7 = CDK7 (UniProt P50613)
CDK9 = CDK9 (UniProt P50750)
CHEK2 = CHEK2 (UniProt O96017)
CSF1R = CSF1R (UniProt P07333)
CSK = CSK (UniProt P41240)
CSNK1A1 = CSNK1A1 (UniProt P48729)
CSNK1D = CSNK1D (UniProt P48730)
DDR1 = DDR1 (UniProt Q08345)
DYRK1B = DYRK1B (UniProt Q9Y463)
DYRK2 = DYRK2 (UniProt Q92630)

Measured: kinase-Nluc reporter destabilization hit call

O=c1[nH]c(C2CCCN2)nc2c1oc1ccc(Cl)cc12 (stereo not given) [XL413 (hydrochloride)] (10 µM)
inactive: BRAF_V600E 0 | BTK 0 | CAMK2A 0 | CAMK2G 0 | CDK10 = 0 | CDK2 = 0 | CDK3 = 0 | CDK4 = 0 | CDK5 = 0 | CDK6 = 0 | CDK7 = 0 | CDK9 = 0 | CHEK2 = 0 | CSF1R 0 | CSK 0 | CSNK1A1 = 0 | CSNK1D 0 | DDR1 = 0 | DYRK1B 0 | DYRK2 = 0

CC(C)C[C@@H](C(=O)Nc1ccn(C[C@@H](O)CO)n1)N1CC(Oc2ccccc2Cl)=CC1=O [Dorzagliatin] (10 µM)
inactive: BRAF_V600E 0 | BTK 0 | CAMK2A 0 | CAMK2G 0 | CDK10 = 0 | CDK2 = 0 | CDK3 = 0 | CDK4 = 0 | CDK5 = 0 | CDK6 = 0 | CDK7 = 0 | CDK9 = 0 | CHEK2 = 0 | CSF1R 0 | CSK 0 | CSNK1A1 = 0 | CSNK1D 0 | DDR1 = 0 | DYRK1B 0 | DYRK2 = 0

COc1c(Nc2cc(C)[nH]n2)nc(Sc2ccc(S(=O)(=O)Cc3cccc([N+](=O)[O-])c3F)cc2F)nc1N1CCCCC1 [Centrinone-B] (2.5 µM)
inactive: BRAF_V600E 0 | BTK 0 | CAMK2A 0 | CAMK2G 0 | CDK10 = 0 | CDK2 = 0 | CDK3 = 0 | CDK4 = 0 | CDK5 = 0 | CDK6 = 0 | CDK7 = 0 | CDK9 = 0 | CHEK2 = 0 | CSF1R 0 | CSK 0 | CSNK1A1 = 0 | CSNK1D 0 | DDR1 = 0 | DYRK1B 0 | DYRK2 = 0

Cc1c(-c2ccc(C(N)=O)c3[nH]c4cc(C(C)(C)O)ccc4c23)cccc1-n1cnc2ccccc2c1=O (2.5 µM)
inactive: BRAF_V600E 0 | BTK 0 | CAMK2A 0 | CAMK2G 0 | CDK10 = 0 | CDK2 = 0 | CDK3 = 0 | CDK4 = 0 | CDK5 = 0 | CDK6 = 0 | CDK7 = 0 | CDK9 = 0 | CHEK2 = 0 | CSF1R 0 | CSK 0 | CSNK1A1 = 0 | CSNK1D 0 | DDR1 = 0 | DYRK1B 0 | DYRK2 = 0

Cc1ccc(NC(=O)c2ccnc(C(F)(F)F)c2)cc1-c1cc(OCCO)nc(N2CCOCC2)c1 (10 µM)
inactive: BRAF_V600E 0 | BTK 0 | CAMK2A 0 | CAMK2G 0 | CDK10 = 0 | CDK2 = 0 | CDK3 = 0 | CDK4 = 0 | CDK5 = 0 | CDK6 = 0 | CDK7 = 0 | CDK9 = 0 | CHEK2 = 0 | CSF1R 0 | CSK 0 | CSNK1A1 = 0 | CSNK1D 0 | DDR1 = 0 | DYRK1B 0 | DYRK2 = 0

Reprinted at random: 2 compounds from above.
CC(C)C[C@@H](C(=O)Nc1ccn(C[C@@H](O)CO)n1)N1CC(Oc2ccccc2Cl)=CC1=O [Dorzagliatin] (10 µM)
inactive: BRAF_V600E 0 | BTK 0 | CAMK2A 0 | CAMK2G 0 | CDK10 = 0 | CDK2 = 0 | CDK3 = 0 | CDK4 = 0 | CDK5 = 0 | CDK6 = 0 | CDK7 = 0 | CDK9 = 0 | CHEK2 = 0 | CSF1R 0 | CSK 0 | CSNK1A1 = 0 | CSNK1D 0 | DDR1 = 0 | DYRK1B 0 | DYRK2 = 0

Cc1ccc(NC(=O)c2ccnc(C(F)(F)F)c2)cc1-c1cc(OCCO)nc(N2CCOCC2)c1 (10 µM)
inactive: BRAF_V600E 0 | BTK 0 | CAMK2A 0 | CAMK2G 0 | CDK10 = 0 | CDK2 = 0 | CDK3 = 0 | CDK4 = 0 | CDK5 = 0 | CDK6 = 0 | CDK7 = 0 | CDK9 = 0 | CHEK2 = 0 | CSF1R 0 | CSK 0 | CSNK1A1 = 0 | CSNK1D 0 | DDR1 = 0 | DYRK1B 0 | DYRK2 = 0

Remaining list, next part.

COc1cc2ncnc(Nc3ccc(F)c(Cl)c3)c2cc1NC(=O)/C=C/CN1CCCCC1 [Dacomitinib] (10 µM)
inactive: BRAF_V600E 0 | BTK 0 | CAMK2A 0 | CAMK2G 0 | CDK10 = 0 | CDK2 = 0 | CDK3 = 0 | CDK4 = 0 | CDK5 = 0 | CDK6 = 0 | CDK7 = 0 | CDK9 = 0 | CHEK2 = 0 | CSF1R 0 | CSK 0 | CSNK1A1 = 0 | CSNK1D 0 | DDR1 = 0 | DYRK1B 0 | DYRK2 = 0

CC(=O)N1CCC(c2cc(-c3ccc(NC(=O)c4cccn(-c5ccc(F)cc5)c4=O)cc3F)c3c(N)ncnn23)CC1 (0.5 µM)
inactive: BRAF_V600E 0 | BTK 0 | CAMK2A 0 | CAMK2G 0 | CDK10 = 0 | CDK2 = 0 | CDK3 = 0 | CDK4 = 0 | CDK5 = 0 | CDK6 = 0 | CDK7 = 0 | CDK9 = 0 | CHEK2 = 0 | CSF1R 0 | CSK 0 | CSNK1A1 = 0 | CSNK1D 0 | DDR1 = 0 | DYRK1B 0 | DYRK2 = 0

Cc1cccc(-c2[nH]c(C(C)(C)C)nc2-c2ccc3nccnc3c2)n1 (10 µM)
inactive: BRAF_V600E 0 | BTK 0 | CAMK2A 0 | CAMK2G 0 | CDK10 = 0 | CDK2 = 0 | CDK3 = 0 | CDK4 = 0 | CDK5 = 0 | CDK6 = 0 | CDK7 = 0 | CDK9 = 0 | CHEK2 = 0 | CSF1R 0 | CSK 0 | CSNK1A1 = 0 | CSNK1D 0 | DDR1 = 0 | DYRK1B 0 | DYRK2 = 0

CNc1cc(Nc2cccn(-c3ccccn3)c2=O)nn2c(C(=O)N[C@@H]3C[C@@H]3F)cnc12 (2.5 µM)
inactive: BRAF_V600E 0 | BTK 0 | CAMK2A 0 | CAMK2G 0 | CDK10 = 0 | CDK2 = 0 | CDK3 = 0 | CDK4 = 0 | CDK5 = 0 | CDK6 = 0 | CDK7 = 0 | CDK9 = 0 | CHEK2 = 0 | CSF1R 0 | CSK 0 | CSNK1A1 = 0 | CSNK1D 0 | DDR1 = 0 | DYRK1B 0 | DYRK2 = 0
